Measurements published in patent publication US20230002496A1 (STAIDSON BEIJING BIOPHARMACEUTICALS, published 2023).
These are yes or no findings as the source states them, for the method shown. Some results given as binding are weak or reduced against the parent protein; the word gives no strength. Where a sequence is shown, tags or fusion partners need not be part of it.

Protein sequences, listed by entry. Tags and fused reporters are not part of them. Lines headed by an entry give the natural chain unless they say otherwise; changes in a name come on top.
UniProt P15509: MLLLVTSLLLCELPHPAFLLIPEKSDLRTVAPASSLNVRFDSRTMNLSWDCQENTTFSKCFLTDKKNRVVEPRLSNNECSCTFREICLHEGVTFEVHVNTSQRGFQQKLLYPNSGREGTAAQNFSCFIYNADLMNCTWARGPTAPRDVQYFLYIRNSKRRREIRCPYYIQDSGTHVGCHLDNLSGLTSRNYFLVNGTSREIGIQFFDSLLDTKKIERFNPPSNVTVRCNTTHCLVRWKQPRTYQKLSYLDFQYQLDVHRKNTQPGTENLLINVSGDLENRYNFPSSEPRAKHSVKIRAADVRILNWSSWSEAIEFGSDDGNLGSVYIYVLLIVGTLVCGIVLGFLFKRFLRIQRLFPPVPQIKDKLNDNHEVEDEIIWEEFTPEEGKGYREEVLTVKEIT

T1: Bavih-GMRa (biotinylated Avi-10His-GMRa(ECD)) (human) (UniProt P15509)
T1 sequence (chain, biotin on the Avi tag (BirA ligase)): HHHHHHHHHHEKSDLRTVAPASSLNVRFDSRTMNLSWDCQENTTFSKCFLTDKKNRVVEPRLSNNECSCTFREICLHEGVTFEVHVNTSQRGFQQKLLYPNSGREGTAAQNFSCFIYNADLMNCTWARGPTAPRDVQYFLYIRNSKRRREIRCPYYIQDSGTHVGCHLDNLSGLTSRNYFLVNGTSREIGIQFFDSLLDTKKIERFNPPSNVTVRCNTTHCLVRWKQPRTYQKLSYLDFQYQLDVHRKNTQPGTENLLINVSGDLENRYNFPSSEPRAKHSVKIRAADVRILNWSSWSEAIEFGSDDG

B1: E01-IgG4 (antibody, V domains shown)
VH: QMQLVQSGAEVKKPGASVKVSCKVSGHTLTELSIHWVRQAPGKGLEWMGGFDPEDGETNYAQKSQGRVTMTGDTSTDTAYLELSSLRSEDTALYYCATGRYCSTDTCYGFDYWGQGTLVTVSS
VL: EIVMTQSPATLSLSPGERATLSCRASQSVSSYLAWYQQKPGQAPRLLIYGASSRATGIPDRFSGSGSGTDFTLTISRLEPEDFAVYYCQQYDNWPPTFGQGTKLEIK
B2: E09-IgG4 (antibody, V domains shown)
VH: QMQLVQSGAEVKKPGASVKVSCKVSGHTLTELSMHWVRQAPGKGLEWMGGFDPEDGETIYAQKFQGRVTMTGDTSTDTAYLELSSLRSEDTALYYCATGRYCGHASCYGFDYWGQGTLVTVSS
VL: EIVMTQSPATLSLSPGERATLSCRASQSVSSYLAWYQQKPGQAPRLLIYGASSRATGIPDRFSGSGSGTDFTLTISRLEPEDFAVYYCQQYNNWPPTFGQGTKLEIK
B3: E105-IgG4 (antibody, V domains shown)
VH: QMQLVQSGAEVKKPGASVKVSCKVSGYTLTELSIHWVRQAPGKGLEWMGGFDPEDGETIYAQKFQGRVTMTGDTSTDTAYLELSSLRSEDTALYYCATGRYTSLMFTYGFDYWGQGTLVTVSS
VL: EIVMTQSPATLSLSPGERATLSCRASQSVSSYLAWYQQKPGQAPRLLIYGASSRATGIPDRFSGSGSGTDFTLTISRLEPEDFAVYYCQQYNNWPPTFGQGTKLEIK
B4: E30-IgG4 (antibody, V domains shown)
VH: QMQLVQSGAEVKKPGASVKVSCKVSGHTLTELSIHWVRQAPGKGLEWMGGFDPEDGETIYAQKFQGRVTMTGDTSTDTAYLELSSLRSEDTALYYCATGRYCSTDTCYGFDYWGQGTLVTVSS
VL: EIVMTQSPATLSLSPGERATLSCRASQSVSSYLAWYQQKPGQAPRLLIYGASSRATGIPDRFSGSGSGTDFTLTISRLEPEDFAVYYCQQYDNSPHTFGQGTKLEIK
B5: E83-IgG4 (antibody, V domains shown)
VH: QMQLVQSGAEVKKPGASVKVSCKVSGYTLTELSIHWVRQAPGKGLEWMGGFDPEDGETIYAQKSQGRVTMTGDTSTDTAYLELSSLRSEDTALYYCATGRYCFYDLCYGFDYWGQGTLVTVSS
VL: EIVMTQSPATLSLSPGERATLSCRASQSVSSYLAWYQQKPGQAPRLLIYGASSRATGIPDRFSGSGSGTDFTLTISRLEPEDFAVYYCQQYSNSPPTFGQGTKLEIK
B6: E34-IgG4 (antibody, V domains shown)
VH: QMQLVQSGAEVKKPGASVKVSCKVSGYTLTELSIHWVRQAPGKGLEWMGGFDPEDGETIYAQKFQGRVTMTGDTSTDTAYLELSSLRSEDTALYYCATGRYSFTDLAYGFDYWGQGTLVTVSS
VL: EIVMTQSPATLSLSPGERATLSCRASQSVSSYLAWYQQKPGQAPRLLIYGASSRATGIPDRFSGSGSGTDFTLTISRLEPEDFAVYYCQQYDSSPPTFGQGTKLEIK
B7: E54-IgG4 (antibody, V domains shown)
VH: QMQLVQSGAEVKKPGASVKVSCKVSGYTLTELSMHWVRQAPGKGLEWMGGFDPEDGETIYAQKFQGRVTMTGDTSTDTAYLELSSLRSEDTALYYCATGRYSSYDIAYGFDYWGQGTLVTVSS
VL: EIVMTQSPATLSLSPGERATLSCRASQSVSSYLAWYQQKPGQAPRLLIYGASSRATGIPDRFSGSGSGTDFTLTISRLEPEDFAVYYCQQYNSSPPTFGQGTKLEIK
B8: E40-IgG4 (antibody, V domains shown)
VH: QMQLVQSGAEVKKPGASVKVSCKVSGHTLTELSIHWVRQAPGKGLEWMGGFDPEDGETIYAQKFQGRVTMTGDTSTDTAYLELSSLRSEDTALYYCATGRYTSLDESYGFDYWGQGTLVTVSS
VL: EIVMTQSPATLSLSPGERATLSCRASQSVSSYLAWYQQKPGQAPRLLIYGASSRATGIPDRFSGSGSGTDFTLTISRLEPEDFAVYYCQQYDNSPYTFGQGTKLEIK
B9: E31-IgG4 (antibody, V domains shown)
VH: QMQLVQSGAEVKKPGASVKVSCKVSGYTLTELSIHWVRQAPGKGLEWMGGFDPEDGETIYAQKSQGRVTMTGDTSTDTAYLELSSLRSEDTALYYCATGRYSESFASYGFDYWGQGTLVTVSS
VL: EIVMTQSPATLSLSPGERATLSCRASQSVSSYLAWYQQKPGQAPRLLIYGASSRATGIPDRFSGSGSGTDFTLTISRLEPEDFAVYYCQQYDNWPYTFGQGTKLEIK
B10: E27-IgG4 (antibody, V domains shown)
VH: QMQLVQSGAEVKKPGASVKVSCKVSGYTLTELSIHWVRQAPGKGLEWMGGFDPEDGETIYAQKFQGRVTMTGDTSTDTAYLELSSLRSEDTALYYCATGRYISFMFTYGFDYWGQGTLVTVSS
VL: EIVMTQSPATLSLSPGERATLSCRASQSVSSYLAWYQQKPGQAPRLLIYGASSRATGIPDRFSGSGSGTDFTLTISRLEPEDFAVYYCQQYNNWPPTFGQGTKLEIK
B11: E29-IgG4 (antibody, V domains shown)
VH: QMQLVQSGAEVKKPGASVKVSCKVSGHTLTELSIHWVRQAPGKGLEWMGGFDPEDGETIYAQKFQGRVTMTGDTSTDTAYLELSSLRSEDTALYYCATGRYCFPDTCYGFDYWGQGTLVTVSS
VL: EIVMTQSPATLSLSPGERATLSCRASQSVSSYLAWYQQKPGQAPRLLIYGASSRATGIPDRFSGSGSGTDFTLTISRLEPEDFAVYYCQQYDNSPHTFGQGTKLEIK
B12: EII81-IgG4 (antibody, V domains shown)
VH: QMQLVQSGAEVKKPGASVKVSCKVSGYTLTELSIHWVRQAPGKGLEWMGGFDPEDGETIYAQKFQGRVTMTGDTSTDTAYLELSSLRSEDTALYYCATGRYTSLAATYGFDYWGQGTLVTVSS
VL: EIVMTQSPATLSLSPGERATLSCRASQSVSSYLAWYQQKPGQAPRLLIYGASSRATGIPDRFSGSGSGTDFTLTISRLEPEDFAVYYCQQYTNVPDTFGQGTKLEIK
B13: EII55-IgG4 (antibody, V domains shown)
VH: QMQLVQSGAEVKKPGASVKVSCKVSGYTLTELSIHWVRQAPGKGLEWMGGFDGDWHETIYAQKFQGRVTMTGDTSTDTAYLELSSLRSEDTALYYCATGRYTSLDATYGFDYWGQGTLVTVSS
VL: EIVMTQSPATLSLSPGERATLSCRASQSVSSYLAWYQQKPGQAPRLLIYGASSRATGIPDRFSGSGSGTDFTLTISRLEPEDFAVYYCQQYGNRPDTFGQGTKLEIK
B14: E194-IgG4 (antibody, V domains shown)
VH: QMQLVQSGAEVKKPGASVKVSCKVSGYTLTELSIHWVRQAPGKGLEWMGGFDPEDGETIYAQKSQGRVTMTGDTSTDTAYLELSSLRSEDTALYYCATGRYTGLMNSYGFDYWGQGTLVTVSS
VL: EIVMTQSPATLSLSPGERATLSCRASQSVSSYLAWYQQKPGQAPRLLIYGASSRATGIPDRFSGSGSGTDFTLTISRLEPEDFAVYYCQQYDNWPYTFGQGTKLEIK
B15: E84-IgG4 (antibody, V domains shown)
VH: QMQLVQSGAEVKKPGASVKVSCKVSGYTLTELSMHWVRQAPGKGLEWMGGFDPEDGETIYAQKSQGRVTMTGDTSTDTAYLELSSLRSEDTALYYCATGRYTRGWFNYGFDYWGQGTLVTVSS
VL: EIVMTQSPATLSLSPGERATLSCRASQSVSSYLAWYQQKPGQAPRLLIYGASSRATGIPDRFSGSGSGTDFTLTISRLEPEDFAVYYCQQYNNWPYTFGQGTKLEIK
B16: E85-IgG4 (antibody, V domains shown)
VH: QMQLVQSGAEVKKPGASVKVSCKVSGYTLTELSIHWVRQAPGKGLEWMGGFDPEDGETIYAQKSQGRVTMTGDTSTDTAYLELSSLRSEDTALYYCATGRYSSYFTNYGFDYWGQGTLVTVSS
VL: EIVMTQSPATLSLSPGERATLSCRASQSVSSYLAWYQQKPGQAPRLLIYGASSRATGIPDRFSGSGSGTDFTLTISRLEPEDFAVYYCQQYNNWPYTFGQGTKLEIK
B17: E172-IgG4 (antibody, V domains shown)
VH: QMQLVQSGAEVKKPGASVKVSCKVSGYTLTELSMHWVRQAPGKGLEWMGGFDPEDGETIYAQKFQGRVTMTGDTSTDTAYLELSSLRSEDTALYYCATGRYANLYNNYGFDYWGQGTLVTVSS
VL: EIVMTQSPATLSLSPGERATLSCRASQSVSSYLAWYQQKPGQAPRLLIYGASSRATGIPDRFSGSGSGTDFTLTISRLEPEDFAVYYCQQYNNWPPTFGQGTKLEIK
B18: E164-IgG4 (antibody, V domains shown)
VH: QMQLVQSGAEVKKPGASVKVSCKVSGHTLTELSMHWVRQAPGKGLEWMGGFDPEDGETIYAQKSQGRVTMTGDTSTDTAYLELSSLRSEDTALYYCATGRYTNDFANYGFDYWGQGTLVTVSS
VL: EIVMTQSPATLSLSPGERATLSCRASQSVSSYLAWYQQKPGQAPRLLIYGASSRATGIPDRFSGSGSGTDFTLTISRLEPEDFAVYYCQQYNNWPYTFGQGTKLEIK
B19: E16-IgG4 (antibody, V domains shown)
VH: QMQLVQSGAEVKKPGASVKVSCKVSGYTLTELSIHWVRQAPGKGLEWMGGFDPEDGEAIYAQKSQGRVTMTGDTSTDTAYLELSSLRSEDTALYYCATGRYSEHSTSYGFDYWGQGTLVTVSS
VL: EIVMTQSPATLSLSPGERATLSCRASQSVSSYLAWYQQKPGQAPRLLIYGASSRATGIPDRFSGSGSGTDFTLTISRLEPEDFAVYYCQQYDSWPYTFGQGTKLEIK

target: T1, Bavih-GMRa (biotinylated Avi-10His-GMRa(ECD)) (human); assay: competitive ELISA as in Example 1: GM-CSF coated, biotinylated GM-CSFRα in solution, antibody (human IgG4) titrated; blocked ligand GM-CSF; x axis 'Log Ab concentration', no unit

binding, binds:
B1, B2, B3, B4, B5, B6, B7, B8, B9, B10, B11, B12, B13, B14, B15, B16

target: T1, Bavih-GMRa (biotinylated Avi-10His-GMRa(ECD)) (human); assay: competitive ELISA as in Example 1: GM-CSF coated, biotinylated GM-CSFRα in solution, antibody (human IgG4) titrated; blocked ligand GM-CSF; x axis numbered 0-4 without label or unit

binding, binds:
B17, B18, B19
